Experimental data reported in patent EP4415826B1, “SYNTHESIS AND IN VITRO ANTITUMOR ACTIVITIES OF NOVEL THIOAMIDE SUBSTITUTED PIPERAZINYL-1,2,4-TRIAZINES” (Istanbul Medipol Universitesi, priority 2021, dated 2023).

Experiments:
[1] = test system: U87MG glioblastoma; experiment: MTT cell viability assay, U87MG; format: cell-based; conditions: ratio of IC50 U87MG to IC50 NIH3T3; first value of the cell
Protocol: (§1) In order to assess the viability of the cells MTT […] assay was applied. Initially cells were seeded in the 96-well plates (VWR- 10062900) at a density of 10,000 cells/well and incubated in a cell culture incubator at 37 °C with 5% CO2 for 24 hours. Then, the cells were incubated with the tested compounds at the concentration of 100µM, 50µM, 25µM and 12.5µM for 24 hours. After completion of incubation in molecules, all media were removed and 50 µl MTT (Gold Biotechnology T-030) solution was added to each well and the plates were incubated for an additional 3 hours, followed by addition of 150 µl of MTT solubilization mixture containing 0.1% Triton X-100 (Cat. No:A4025, Biomatik, USA ) and 4mM HCI (Cat. No:07102, Sigma-Aldrich, Germany) in isopropanol(Cat. No:278475, Sigma-Aldrich, Germany). The solution was slowly mixed for 15 minutes to dissolve the MTT formazan crystals and the absorbance of each well was measured with HIDEX Sense Microplate Reader(Cat. No:425-301, HIDEX, Finland) at the wavelength of 570 nm.

[2] = test system: MCF7 breast tumor; experiment: MTT cell viability assay, MCF7; format: cell-based; conditions: ratio of IC50 MCF7 to IC50 NIH3T3; second value of the cell
Protocol: as §1

COc1ccc(-c2nnc(N3CCN(C(=S)Nc4ccccc4)CC3)nc2-c2ccc(OC)cc2)cc1 [Compound 1g, 4-(5,6-bis(4-methoxyphenyl)-1,2,4-triazin-3-yl)-N-phenylpiperazine-1-carbothioamide]
SI U87MG/NIH3T3 [1]: 0.89
SI MCF7/NIH3T3 [2]: 1.19

S=C(Nc1ccccc1)N1CCN(c2nnc(-c3ccc(Cl)cc3)c(-c3ccc(Cl)cc3)n2)CC1 [Compound 1h, 4-(5,6-bis(4-chlorophenyl)-1,2,4-triazin-3-yl)-N-phenylpiperazine-1-carbothioamide]
SI MCF7/NIH3T3 [2]: ND, 1.92

CCNC(=S)N1CCN(c2nnc(-c3ccccc3)c(-c3ccccc3)n2)CC1 [Compound 1a, 4-(5,6-diphenyl-1,2,4-triazin-3-yl)-N-ethylpiperazine-1-carbothioamide]
SI U87MG/NIH3T3 [1]: 0.89
SI MCF7/NIH3T3 [2]: 1.89

S=C(Nc1ccc(Cl)cc1)N1CCN(c2nnc(-c3ccc(Cl)cc3)c(-c3ccc(Cl)cc3)n2)CC1 [Compound 1i, 4-(5,6-bis(4-chlorophenyl)-1,2,4-triazin-3-yl)-N-(4-chlorophenyl)piperazine-1-carbothioamide]
SI U87MG/NIH3T3 [1]: 1,21, ND

S=C(Nc1ccccc1)N1CCN(c2nnc(-c3ccccc3)c(-c3ccccc3)n2)CC1 [Compound 1b, 4-(5,6-diphenyl-1,2,4-triazin-3-yl)-N-phenylpiperazine-1-carbothioamide]
SI U87MG/NIH3T3 [1]: 1.08, ND

N.N.[Cl][Pt][Cl] [Cisplatin, reference compound]
SI U87MG/NIH3T3 [1]: 4.88
SI MCF7/NIH3T3 [2]: 1.73

S=C(Nc1ccc(Cl)cc1)N1CCN(c2nnc(-c3ccccc3)c(-c3ccccc3)n2)CC1 [Compound 1f, N-(4-chlorophenyl)-4-(5,6-diphenyl-1,2,4-triazin-3-yl)piperazine-1-carbothioamide]
SI U87MG/NIH3T3 [1]: 0.90, ND
